Experimental data taken from PMC12274614, “Scavenger receptor CD163 multimerises to allow uptake of diverse ligands” (Nature Communications, 2025).
These are yes or no findings as the source states them, for the method shown.

Chains of the proteins cited; added tags and fusions are not shown. Lines headed by an entry give the natural chain unless they say otherwise; changes in a name come on top. A line that says so, or that is headed by a name, gives the form on record, which may keep a tag or linker. Residues count along the entry.
CD163 ectodomain (CD163-WT) (Q86VB7, residues 46-1050): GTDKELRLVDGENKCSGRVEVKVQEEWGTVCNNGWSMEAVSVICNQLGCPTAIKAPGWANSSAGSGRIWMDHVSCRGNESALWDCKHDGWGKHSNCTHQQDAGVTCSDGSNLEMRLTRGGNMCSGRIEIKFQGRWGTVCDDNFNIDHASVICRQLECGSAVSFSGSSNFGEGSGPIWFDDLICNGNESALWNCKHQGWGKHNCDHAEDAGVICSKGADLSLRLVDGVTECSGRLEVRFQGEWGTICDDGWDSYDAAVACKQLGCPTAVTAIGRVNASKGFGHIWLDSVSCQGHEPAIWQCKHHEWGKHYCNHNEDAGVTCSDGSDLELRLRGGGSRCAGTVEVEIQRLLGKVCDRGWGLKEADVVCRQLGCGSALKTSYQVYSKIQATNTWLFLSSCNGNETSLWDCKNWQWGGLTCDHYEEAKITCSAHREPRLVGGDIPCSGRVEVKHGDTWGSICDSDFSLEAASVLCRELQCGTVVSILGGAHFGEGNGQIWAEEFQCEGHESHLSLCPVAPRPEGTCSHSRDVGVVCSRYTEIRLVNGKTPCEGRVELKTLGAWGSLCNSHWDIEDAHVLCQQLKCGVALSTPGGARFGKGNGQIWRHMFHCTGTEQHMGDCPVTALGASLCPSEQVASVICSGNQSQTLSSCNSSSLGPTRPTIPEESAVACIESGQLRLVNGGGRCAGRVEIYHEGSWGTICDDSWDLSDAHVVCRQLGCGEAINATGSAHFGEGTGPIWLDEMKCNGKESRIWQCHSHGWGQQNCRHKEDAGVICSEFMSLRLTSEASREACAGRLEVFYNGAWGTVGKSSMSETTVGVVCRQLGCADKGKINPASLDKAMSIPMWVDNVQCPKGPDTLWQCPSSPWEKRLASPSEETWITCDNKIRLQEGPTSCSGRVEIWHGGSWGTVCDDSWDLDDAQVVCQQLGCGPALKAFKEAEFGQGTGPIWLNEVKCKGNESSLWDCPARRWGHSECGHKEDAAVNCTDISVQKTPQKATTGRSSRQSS
CD163-R809T-BAP (monomeric CD163 ectodomain) (Q86VB7-1, form named): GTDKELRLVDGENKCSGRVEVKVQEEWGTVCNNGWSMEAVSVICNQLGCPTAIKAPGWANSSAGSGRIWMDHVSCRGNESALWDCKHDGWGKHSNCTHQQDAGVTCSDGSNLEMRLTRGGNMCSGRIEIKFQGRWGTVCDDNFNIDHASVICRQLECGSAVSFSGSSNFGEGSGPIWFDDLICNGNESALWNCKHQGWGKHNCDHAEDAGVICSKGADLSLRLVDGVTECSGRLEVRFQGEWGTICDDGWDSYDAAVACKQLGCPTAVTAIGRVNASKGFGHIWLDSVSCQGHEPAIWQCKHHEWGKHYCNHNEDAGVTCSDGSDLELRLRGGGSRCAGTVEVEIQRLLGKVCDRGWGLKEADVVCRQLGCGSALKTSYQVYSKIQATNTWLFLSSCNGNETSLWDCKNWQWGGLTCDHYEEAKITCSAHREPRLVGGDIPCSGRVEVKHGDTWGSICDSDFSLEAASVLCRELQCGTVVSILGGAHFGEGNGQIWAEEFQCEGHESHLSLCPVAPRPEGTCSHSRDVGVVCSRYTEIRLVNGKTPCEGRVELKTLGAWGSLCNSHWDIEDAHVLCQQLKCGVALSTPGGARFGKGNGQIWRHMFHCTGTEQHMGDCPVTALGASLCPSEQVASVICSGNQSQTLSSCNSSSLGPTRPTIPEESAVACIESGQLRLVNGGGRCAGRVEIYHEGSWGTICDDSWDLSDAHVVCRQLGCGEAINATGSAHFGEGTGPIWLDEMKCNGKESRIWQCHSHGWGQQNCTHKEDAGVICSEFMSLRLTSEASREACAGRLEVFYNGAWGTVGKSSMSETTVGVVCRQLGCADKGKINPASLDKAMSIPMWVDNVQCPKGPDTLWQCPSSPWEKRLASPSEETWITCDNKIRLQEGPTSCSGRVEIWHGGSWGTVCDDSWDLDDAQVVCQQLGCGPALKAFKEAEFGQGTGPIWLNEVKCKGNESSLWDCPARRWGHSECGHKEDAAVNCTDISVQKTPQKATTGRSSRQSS

Legend:
[1] = target: CD163-R809T-BAP (monomeric CD163 ectodomain) (human) (UniProt Q86VB7); assay: SEC-MALLS; CD163-WT (3.47-24.2 μM monomer) or CD163-R809T-BAP (3.41 or 24.2 μM) alone, Superose 6, HBS pH 7.5 with […] calcium, room temperature; both purified
[2] = target: CD163 ectodomain (CD163-WT) (human) (UniProt Q86VB7); assay: SEC-MALLS; 3.47 μM CD163-WT with 1.18 μM Hp(1-1)Hb, HBS pH 7.5 without calcium, room temperature; both purified
[3] = target: CD163 ectodomain (CD163-WT) (human) (UniProt Q86VB7); assay: SEC-MALLS; 3.47 μM CD163-WT with 1.18 μM Hp(1-1)Hb, MBS pH 6.0 (20 mM MES), or MBS with […] CaCl2, room temperature; both purified
[4] = target: CD163 ectodomain (CD163-WT) (human) (UniProt Q86VB7); assay: condition: only with […] MgCl2 in place of CaCl2; SEC-MALLS; 3.47 μM CD163-WT with 1.18 μM Hp(1-1)Hb, HBS pH 7.5 with […] MgCl2 in place of CaCl2, room temperature; both purified

Q: “CD163-R809T-BAP (monomeric CD163 ectodomain) (from UniProt Q86VB7-1 46-1050) (domain or fragment)” was tested. Which binding [1] did it give?
A: The binding was “no binding (tested: 24.2 μM)”.

Q: For “CD163 ectodomain (CD163-WT) (from UniProt Q86VB7-1 46-1050) (domain or fragment)”, which binding [2] is on record?
A: Its binding is “no binding (condition: in the absence of calcium)”.

Q: What about the binding [3] of the same substance?
A: The binding was “no binding (condition: at pH 6)”.

Q: And the binding [4]?
A: The binding was “no binding”.
